Measured values: the supplement of paper PMC6411743
± gives the standard deviation of the averaged measurements. The list shows a part of the results, in another mix than the full data. Most values lie at the level of the controls, where differences are scatter.

Sequences of proteins named here, by UniProt entry; tags and fusion partners are left off. A change or cut given only in a name is not applied to a line headed by its entry.
UniProt Q9Y5A6: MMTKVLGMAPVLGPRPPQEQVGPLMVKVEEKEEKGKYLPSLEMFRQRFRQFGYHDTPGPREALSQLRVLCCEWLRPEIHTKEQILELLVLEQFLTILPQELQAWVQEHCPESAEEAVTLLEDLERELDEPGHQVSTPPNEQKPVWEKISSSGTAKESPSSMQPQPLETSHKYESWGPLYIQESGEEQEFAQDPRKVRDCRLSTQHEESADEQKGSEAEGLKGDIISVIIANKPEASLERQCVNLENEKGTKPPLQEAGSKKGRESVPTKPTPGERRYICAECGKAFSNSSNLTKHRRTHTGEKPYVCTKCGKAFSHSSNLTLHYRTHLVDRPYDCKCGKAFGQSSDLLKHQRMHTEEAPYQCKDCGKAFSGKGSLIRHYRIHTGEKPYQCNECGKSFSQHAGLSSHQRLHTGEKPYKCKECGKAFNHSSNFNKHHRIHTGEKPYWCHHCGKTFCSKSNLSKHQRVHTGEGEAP
UniProt Q16637, whole entry: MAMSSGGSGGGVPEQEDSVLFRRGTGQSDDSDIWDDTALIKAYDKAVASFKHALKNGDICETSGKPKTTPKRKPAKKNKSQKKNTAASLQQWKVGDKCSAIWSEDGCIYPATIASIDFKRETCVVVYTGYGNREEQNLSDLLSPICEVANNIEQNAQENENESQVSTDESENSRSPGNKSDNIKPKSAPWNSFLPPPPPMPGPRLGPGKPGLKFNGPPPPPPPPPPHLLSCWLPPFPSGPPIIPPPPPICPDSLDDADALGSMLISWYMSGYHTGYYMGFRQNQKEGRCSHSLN
UniProt Q8NHQ9: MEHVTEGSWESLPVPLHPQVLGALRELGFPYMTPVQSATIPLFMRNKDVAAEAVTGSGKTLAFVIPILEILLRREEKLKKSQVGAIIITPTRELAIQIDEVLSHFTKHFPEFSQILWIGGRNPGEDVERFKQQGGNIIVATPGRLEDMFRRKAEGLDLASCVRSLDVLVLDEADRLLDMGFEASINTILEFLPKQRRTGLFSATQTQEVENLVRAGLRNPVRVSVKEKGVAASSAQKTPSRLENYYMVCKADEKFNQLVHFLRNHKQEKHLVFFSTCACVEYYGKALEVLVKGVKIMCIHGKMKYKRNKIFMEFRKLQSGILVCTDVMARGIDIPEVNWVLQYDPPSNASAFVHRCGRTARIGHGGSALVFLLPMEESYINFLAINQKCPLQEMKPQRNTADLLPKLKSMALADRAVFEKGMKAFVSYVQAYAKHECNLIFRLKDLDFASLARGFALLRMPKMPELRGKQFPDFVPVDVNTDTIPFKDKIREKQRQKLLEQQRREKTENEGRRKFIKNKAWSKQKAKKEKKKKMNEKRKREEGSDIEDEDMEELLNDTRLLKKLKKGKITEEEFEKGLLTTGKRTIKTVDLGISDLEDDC
UniProt P07942: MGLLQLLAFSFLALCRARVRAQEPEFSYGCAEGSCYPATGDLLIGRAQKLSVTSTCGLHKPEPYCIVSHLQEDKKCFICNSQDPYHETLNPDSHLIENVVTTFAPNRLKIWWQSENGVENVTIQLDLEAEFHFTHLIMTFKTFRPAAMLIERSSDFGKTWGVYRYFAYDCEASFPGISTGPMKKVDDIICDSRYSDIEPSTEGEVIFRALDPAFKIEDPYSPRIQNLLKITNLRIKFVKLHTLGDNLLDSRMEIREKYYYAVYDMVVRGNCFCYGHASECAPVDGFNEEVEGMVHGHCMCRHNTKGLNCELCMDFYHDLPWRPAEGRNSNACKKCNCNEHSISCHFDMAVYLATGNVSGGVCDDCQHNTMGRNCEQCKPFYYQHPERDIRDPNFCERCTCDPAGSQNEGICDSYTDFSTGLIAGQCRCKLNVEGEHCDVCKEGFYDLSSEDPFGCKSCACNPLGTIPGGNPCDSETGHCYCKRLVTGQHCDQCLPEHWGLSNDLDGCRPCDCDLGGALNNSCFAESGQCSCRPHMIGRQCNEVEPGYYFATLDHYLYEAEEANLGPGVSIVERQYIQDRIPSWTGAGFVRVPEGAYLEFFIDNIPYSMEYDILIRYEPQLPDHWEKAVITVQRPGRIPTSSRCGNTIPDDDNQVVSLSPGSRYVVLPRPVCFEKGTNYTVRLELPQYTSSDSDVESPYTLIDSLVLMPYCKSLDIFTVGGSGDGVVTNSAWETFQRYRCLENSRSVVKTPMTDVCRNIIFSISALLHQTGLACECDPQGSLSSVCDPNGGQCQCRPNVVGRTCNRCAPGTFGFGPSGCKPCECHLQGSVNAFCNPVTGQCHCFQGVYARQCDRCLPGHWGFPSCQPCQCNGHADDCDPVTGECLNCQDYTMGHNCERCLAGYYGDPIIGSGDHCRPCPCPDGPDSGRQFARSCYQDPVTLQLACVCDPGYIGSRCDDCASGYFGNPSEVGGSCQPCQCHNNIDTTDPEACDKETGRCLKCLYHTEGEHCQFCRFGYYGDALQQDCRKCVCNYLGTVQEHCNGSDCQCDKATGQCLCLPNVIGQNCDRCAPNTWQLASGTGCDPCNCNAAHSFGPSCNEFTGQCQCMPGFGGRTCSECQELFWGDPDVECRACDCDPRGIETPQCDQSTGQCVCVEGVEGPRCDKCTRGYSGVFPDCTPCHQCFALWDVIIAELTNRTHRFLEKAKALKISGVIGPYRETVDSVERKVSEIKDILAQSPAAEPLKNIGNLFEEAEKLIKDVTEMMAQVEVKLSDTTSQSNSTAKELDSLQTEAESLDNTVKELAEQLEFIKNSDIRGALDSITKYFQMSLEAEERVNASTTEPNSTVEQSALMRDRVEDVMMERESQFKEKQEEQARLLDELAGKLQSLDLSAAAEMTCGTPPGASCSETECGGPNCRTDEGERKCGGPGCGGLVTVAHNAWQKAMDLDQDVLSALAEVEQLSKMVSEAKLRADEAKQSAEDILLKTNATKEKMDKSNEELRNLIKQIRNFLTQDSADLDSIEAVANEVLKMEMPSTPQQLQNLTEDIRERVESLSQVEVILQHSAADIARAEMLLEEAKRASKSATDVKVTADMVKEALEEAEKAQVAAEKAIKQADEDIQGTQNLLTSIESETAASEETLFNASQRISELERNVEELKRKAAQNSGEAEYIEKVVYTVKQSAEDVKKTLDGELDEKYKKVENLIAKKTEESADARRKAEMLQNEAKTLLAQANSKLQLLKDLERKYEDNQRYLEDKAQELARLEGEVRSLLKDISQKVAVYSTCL
UniProt Q6L8Q7: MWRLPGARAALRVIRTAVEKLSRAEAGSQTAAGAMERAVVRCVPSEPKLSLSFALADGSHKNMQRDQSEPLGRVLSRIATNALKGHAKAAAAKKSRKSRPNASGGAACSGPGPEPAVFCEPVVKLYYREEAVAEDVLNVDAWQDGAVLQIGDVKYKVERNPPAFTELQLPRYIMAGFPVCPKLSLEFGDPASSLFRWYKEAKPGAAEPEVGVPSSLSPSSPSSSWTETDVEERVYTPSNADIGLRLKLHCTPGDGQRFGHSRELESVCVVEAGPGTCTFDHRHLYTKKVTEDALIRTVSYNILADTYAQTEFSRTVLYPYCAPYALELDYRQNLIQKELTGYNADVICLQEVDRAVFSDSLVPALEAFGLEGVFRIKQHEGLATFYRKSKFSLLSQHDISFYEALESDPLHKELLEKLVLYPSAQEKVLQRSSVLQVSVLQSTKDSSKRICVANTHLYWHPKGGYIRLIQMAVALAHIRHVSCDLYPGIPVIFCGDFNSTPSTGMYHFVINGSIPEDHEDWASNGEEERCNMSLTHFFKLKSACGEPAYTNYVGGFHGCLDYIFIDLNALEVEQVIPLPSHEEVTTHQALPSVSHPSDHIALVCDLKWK
UniProt O75496: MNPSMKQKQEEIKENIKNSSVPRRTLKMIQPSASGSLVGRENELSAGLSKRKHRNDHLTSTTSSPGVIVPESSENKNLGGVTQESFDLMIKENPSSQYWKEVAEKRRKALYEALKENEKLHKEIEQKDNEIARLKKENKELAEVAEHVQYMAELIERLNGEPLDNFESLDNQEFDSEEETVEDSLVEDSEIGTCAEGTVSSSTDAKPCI
UniProt Q9Y587: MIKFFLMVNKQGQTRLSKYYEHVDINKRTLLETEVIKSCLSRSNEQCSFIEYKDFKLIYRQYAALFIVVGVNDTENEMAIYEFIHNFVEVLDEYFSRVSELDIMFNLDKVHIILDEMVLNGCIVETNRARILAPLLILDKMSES
UniProt Q9UI10, whole entry: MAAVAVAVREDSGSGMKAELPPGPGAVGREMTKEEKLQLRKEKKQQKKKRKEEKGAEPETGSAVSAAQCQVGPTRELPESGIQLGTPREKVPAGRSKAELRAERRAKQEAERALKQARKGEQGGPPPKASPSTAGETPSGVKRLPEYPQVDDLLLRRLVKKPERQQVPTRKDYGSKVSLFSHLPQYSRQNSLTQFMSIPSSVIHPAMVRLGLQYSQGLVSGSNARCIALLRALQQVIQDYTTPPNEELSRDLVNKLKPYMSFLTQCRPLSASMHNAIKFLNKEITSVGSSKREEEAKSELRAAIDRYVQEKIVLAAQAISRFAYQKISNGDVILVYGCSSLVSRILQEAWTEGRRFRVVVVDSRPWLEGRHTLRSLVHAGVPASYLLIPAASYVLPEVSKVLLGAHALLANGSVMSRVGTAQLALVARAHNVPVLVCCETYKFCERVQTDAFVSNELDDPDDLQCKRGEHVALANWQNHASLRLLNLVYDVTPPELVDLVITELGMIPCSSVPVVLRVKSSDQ
UniProt P08195: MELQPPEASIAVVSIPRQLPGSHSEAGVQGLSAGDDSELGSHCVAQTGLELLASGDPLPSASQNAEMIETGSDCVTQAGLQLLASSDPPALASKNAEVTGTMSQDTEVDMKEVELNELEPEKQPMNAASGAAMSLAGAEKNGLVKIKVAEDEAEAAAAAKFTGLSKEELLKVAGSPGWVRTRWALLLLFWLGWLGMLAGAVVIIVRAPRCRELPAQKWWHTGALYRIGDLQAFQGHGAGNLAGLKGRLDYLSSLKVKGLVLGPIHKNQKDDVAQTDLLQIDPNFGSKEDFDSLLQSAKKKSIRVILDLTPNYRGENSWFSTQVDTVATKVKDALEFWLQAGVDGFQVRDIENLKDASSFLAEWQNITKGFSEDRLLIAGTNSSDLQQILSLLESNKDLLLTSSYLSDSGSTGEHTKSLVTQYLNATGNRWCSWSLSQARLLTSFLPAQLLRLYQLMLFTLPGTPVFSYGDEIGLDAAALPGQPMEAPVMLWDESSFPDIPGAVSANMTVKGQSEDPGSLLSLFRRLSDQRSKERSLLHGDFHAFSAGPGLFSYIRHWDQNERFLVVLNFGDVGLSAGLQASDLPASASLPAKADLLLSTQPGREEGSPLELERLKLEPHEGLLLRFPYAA
UniProt Q9BZZ5: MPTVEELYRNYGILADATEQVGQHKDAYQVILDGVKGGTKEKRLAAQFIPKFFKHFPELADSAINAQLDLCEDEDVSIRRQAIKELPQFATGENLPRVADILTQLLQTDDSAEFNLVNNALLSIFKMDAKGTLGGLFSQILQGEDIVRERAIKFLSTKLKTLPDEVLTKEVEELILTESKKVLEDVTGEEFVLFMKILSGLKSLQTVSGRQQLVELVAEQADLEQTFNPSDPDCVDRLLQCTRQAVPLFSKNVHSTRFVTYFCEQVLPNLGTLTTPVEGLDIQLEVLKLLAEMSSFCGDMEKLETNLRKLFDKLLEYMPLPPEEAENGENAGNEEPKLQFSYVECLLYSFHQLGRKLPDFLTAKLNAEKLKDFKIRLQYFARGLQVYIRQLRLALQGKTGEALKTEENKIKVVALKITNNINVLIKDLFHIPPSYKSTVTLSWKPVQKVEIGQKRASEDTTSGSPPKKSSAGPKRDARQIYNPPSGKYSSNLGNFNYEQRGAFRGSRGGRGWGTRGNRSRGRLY
UniProt Q7KZI7: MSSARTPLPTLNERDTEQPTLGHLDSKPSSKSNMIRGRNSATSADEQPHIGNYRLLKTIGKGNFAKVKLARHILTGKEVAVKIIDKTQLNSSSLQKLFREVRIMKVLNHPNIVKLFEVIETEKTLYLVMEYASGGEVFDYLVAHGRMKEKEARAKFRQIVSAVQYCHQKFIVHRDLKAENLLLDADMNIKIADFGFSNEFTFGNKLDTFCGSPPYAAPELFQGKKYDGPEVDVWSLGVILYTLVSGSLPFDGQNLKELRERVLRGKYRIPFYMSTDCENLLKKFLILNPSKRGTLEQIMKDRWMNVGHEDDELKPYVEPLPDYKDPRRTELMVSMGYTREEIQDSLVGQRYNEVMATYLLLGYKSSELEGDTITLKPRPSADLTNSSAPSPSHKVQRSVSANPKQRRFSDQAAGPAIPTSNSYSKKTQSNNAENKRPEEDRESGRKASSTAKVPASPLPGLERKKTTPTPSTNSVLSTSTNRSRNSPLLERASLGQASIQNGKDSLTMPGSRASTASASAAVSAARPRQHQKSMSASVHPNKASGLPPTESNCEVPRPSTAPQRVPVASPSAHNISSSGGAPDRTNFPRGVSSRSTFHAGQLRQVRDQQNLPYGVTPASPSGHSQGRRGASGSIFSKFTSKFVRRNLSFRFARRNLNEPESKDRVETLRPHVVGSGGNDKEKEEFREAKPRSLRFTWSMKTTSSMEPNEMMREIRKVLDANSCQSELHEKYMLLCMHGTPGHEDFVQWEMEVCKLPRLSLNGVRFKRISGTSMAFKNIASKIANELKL

Compound: Nc1ncnc2c1ncn2[C@@H]1O[C@H](COP(=O)(O)OP(=O)(O)OP(=O)(O)O)[C@@H](O)[C@H]1O [adenosine triphosphate]
Assay: NP40-soluble protein abundance relative to vehicle (solubility fold change) (ratio); higher = more soluble protein in presence of ATP
Outline: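 In three independent experiments, Jurkat crude lysate made by Dounce homogenisation was treated for 10 min at room temperature and then 3 min at 37 °C with eight concentrations ranging from 0.1 to 10 mM. It was then solubilised with 0.8% NP40 plus benzonase for 60 min at 4 °C and ultracentrifuged. The supernatant was TMT-labelled for LC-MS/MS, and each value is the fold change against the detergent-processed vehicle for the same replicate, using vsn-normalised intensities.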

Target | NP40-soluble protein abundance (concentration: 0.1mM) | NP40-soluble protein abundance (concentration: 0.5mM)
F8VU90 and related entries (UniProt Q9NYL4) | 0.823 ± 0.031 | 0.843 ± 0.042
G3V1M0 and related entries (UniProt Q9Y5A6) | 1.01 ± 0.096 | 1.08 ± 0.085
F2Z388 and related entries (UniProt P42766) | 0.984 ± 0.052 | 1 ± 0.094
F8WC89 (UniProt A6NKF1) | 1.02 ± 0.046 | 0.947 ± 0.053
E9PIV2 and related entries (UniProt P24001) | 0.902 ± 0.093 | 0.879 ± 0.15
G3V4T2 and related entries (UniProt Q86U42) | 0.939 ± 0.014 | 0.961 ± 0.064
E9PI54 and related entries (UniProt Q06609) | 1.06 ± 0.026 | 1.09 ± 0.072
F8VSB6 and related entries (UniProt Q9H4P4) | 0.96 ± 0.079 | 0.914 ± 0.039
D6RIF6 and related entries (UniProt Q9P270) | 0.938 ± 0.019 | 0.968 ± 0.021
F8W6G1 and related entries (UniProt Q9UHY1) | 0.9933 ± 0.0026 | 1 ± 0.029
E7EQZ4 and related entries (UniProt Q16637) | 0.92 ± 0.14 | 0.951 ± 0.13
D6RIE5 and related entries (UniProt Q9ULK6) | 0.884 ± 0.032 | 0.881 ± 0.12
F5H5U2 and related entries (UniProt Q8NHQ9) | 1.02 ± 0.031 | 1.06 ± 0.022
E9PIC6 and related entries (UniProt P06746) | 1.04 ± 0.048 | 1.11 ± 0.077
F5H1N7 and related entries (UniProt Q6ZU35) | 0.886 ± 0.046 | 0.931 ± 0.056
F8WCA0 and related entries (UniProt P63027+J3QRU4+L7N2F9+F8WCA0) | 0.839 ± 0.13 | 0.844 ± 0.25
F8VS36 and related entries (UniProt Q92994) | 0.985 ± 0.049 | 0.984 ± 0.069
F8W8I6 and related entries (UniProt P31483) | 1.03 ± 0.04 | 1.02 ± 0.024
E9PLD2 and related entries (UniProt Q9H019) | 0.999 ± 0.044 | 1.01 ± 0.023
F6TB26 and related entries (UniProt Q9Y2W6) | 0.985 ± 0.022 | 1.01 ± 0.042
F2Z2I2 and related entries (UniProt Q16875) | 1.03 ± 0.058 | 1.04 ± 0.057
F8W8G5 and related entries (UniProt P10242) | 1 ± 0.012 | 1.1 ± 0.068
G3V4K3 and related entries (UniProt Q9H9C1) | 1.05 ± 0.046 | 1 ± 0.12
G5E9C0 and related entries (UniProt Q9HB58) | 1.03 ± 0.067 | 1.145 ± 0.0083

Target | NP40-soluble protein abundance (concentration: 0.1mM) | NP40-soluble protein abundance (concentration: 0.5mM)
F5H365 and related entries (UniProt Q15436) | 1.05 ± 0.075 | 1.02 ± 0.031
F5H136 and related entries (UniProt P17987) | 0.997 ± 0.054 | 1.01 ± 0.077
E9PBC1 and related entries (UniProt O95208) | 0.961 ± 0.057 | 0.909 ± 0.043
F2Z2W7 and related entries (UniProt Q8IZ69) | 0.987 ± 0.031 | 1.02 ± 0.02
G3XAI2 and related entries (UniProt P07942) | 0.967 ± 0.19 | 0.98 ± 0.15
F8VV56 and related entries (UniProt P08962) | 0.9001 ± 0.0062 | 0.803 ± 0.071
E7ERS3 and related entries (UniProt Q86VM9) | 0.96 ± 0.053 | 1.05 ± 0.05
F8WET0 and related entries (UniProt Q8IW19) | 1.12 ± 0.15 | 1.15 ± 0.19
F6T1Q0 and related entries (UniProt Q6L8Q7) | 1.08 ± 0.074 | 1.06 ± 0.085
E9PQY3 and related entries (UniProt P11117) | 0.97 ± 0.029 | 0.968 ± 0.17
E9PNT2 and related entries (UniProt Q6ZUM4) | 1.02 ± 0.022 | 1.02 ± 0.02
E9PR30 and related entries (UniProt P62861) | 0.859 ± 0.11 | 0.913 ± 0.19
G3V3G9 (UniProt P40855) | 1.02 ± 0.05 | 1.02 ± 0.033
F2Z2U4 and related entries (UniProt Q9Y4A5) | 1.02 ± 0.013 | 1.03 ± 0.014
E9PCD7 and related entries (UniProt Q9Y2E5) | 0.942 ± 0.078 | 0.927 ± 0.11
E7EMK3 and related entries (UniProt Q14254) | 1.02 ± 0.044 | 1.02 ± 0.092
E9PFK9 and related entries (UniProt Q9UJ41) | 1 ± 0.019 | 0.993 ± 0.027
F5H0F9 and related entries (UniProt Q9UJX4) | 1.01 ± 0.022 | 1.05 ± 0.03
F8VU11 and related entries (UniProt Q6NWY9) | 0.885 ± 0.042 | 0.992 ± 0.044
E9PLI6 and related entries (UniProt Q8N9N8) | 1.01 ± 0.026 | 1.01 ± 0.065
E9PJF5 and related entries (UniProt Q9HCU9) | 0.919 ± 0.18 | 0.953 ± 0.16
E7ETP9 and related entries (UniProt Q9UQV4) | 0.927 ± 0.055 | 0.865 ± 0.081
F8W543 and related entries (UniProt P55209) | 0.958 ± 0.027 | 0.941 ± 0.032
E7EVC7 and related entries (UniProt Q676U5) | 1.01 ± 0.052 | 1.02 ± 0.026

An excerpt of these results, with tabs:
Target	NP40-soluble protein abundance (concentration: 0.1mM)	NP40-soluble protein abundance (concentration: 0.5mM)
G3V4K3 and related entries (UniProt Q9H9C1)	1.05 ± 0.046	1 ± 0.12
G5E9C0 and related entries (UniProt Q9HB58)	1.03 ± 0.067	1.145 ± 0.0083
F5H365 and related entries (UniProt Q15436)	1.05 ± 0.075	1.02 ± 0.031
F5H136 and related entries (UniProt P17987)	0.997 ± 0.054	1.01 ± 0.077
E9PBC1 and related entries (UniProt O95208)	0.961 ± 0.057	0.909 ± 0.043
F2Z2W7 and related entries (UniProt Q8IZ69)	0.987 ± 0.031	1.02 ± 0.02
G3XAI2 and related entries (UniProt P07942)	0.967 ± 0.19	0.98 ± 0.15
F8VV56 and related entries (UniProt P08962)	0.9001 ± 0.0062	0.803 ± 0.071
E7ERS3 and related entries (UniProt Q86VM9)	0.96 ± 0.053	1.05 ± 0.05
F8WET0 and related entries (UniProt Q8IW19)	1.12 ± 0.15	1.15 ± 0.19
F6T1Q0 and related entries (UniProt Q6L8Q7)	1.08 ± 0.074	1.06 ± 0.085
E9PQY3 and related entries (UniProt P11117)	0.97 ± 0.029	0.968 ± 0.17
E9PNT2 and related entries (UniProt Q6ZUM4)	1.02 ± 0.022	1.02 ± 0.02
E9PR30 and related entries (UniProt P62861)	0.859 ± 0.11	0.913 ± 0.19
G3V3G9 (UniProt P40855)	1.02 ± 0.05	1.02 ± 0.033
F2Z2U4 and related entries (UniProt Q9Y4A5)	1.02 ± 0.013	1.03 ± 0.014
E9PCD7 and related entries (UniProt Q9Y2E5)	0.942 ± 0.078	0.927 ± 0.11
E7EMK3 and related entries (UniProt Q14254)	1.02 ± 0.044	1.02 ± 0.092
E9PFK9 and related entries (UniProt Q9UJ41)	1 ± 0.019	0.993 ± 0.027
F5H0F9 and related entries (UniProt Q9UJX4)	1.01 ± 0.022	1.05 ± 0.03
F8VU11 and related entries (UniProt Q6NWY9)	0.885 ± 0.042	0.992 ± 0.044
E9PLI6 and related entries (UniProt Q8N9N8)	1.01 ± 0.026	1.01 ± 0.065
E9PJF5 and related entries (UniProt Q9HCU9)	0.919 ± 0.18	0.953 ± 0.16

Remaining list, next part:

Target | NP40-soluble protein abundance (concentration: 0.1mM) | NP40-soluble protein abundance (concentration: 0.5mM)
G3V1S4 and related entries (UniProt Q9Y324) | 1.02 ± 0.14 | 1.03 ± 0.12
E7ET07 and related entries (UniProt Q9NXR8) | 1.09 ± 0.15 | 1.18 ± 0.12
E7ET39 and related entries (UniProt Q8NDZ4) | 1.03 ± 0.06 | 1.03 ± 0.15
E7END7 and related entries (UniProt P62820) | 1.03 ± 0.062 | 1.04 ± 0.042
F8VXC8 and related entries (UniProt Q8TAQ2) | 1.01 ± 0.052 | 1.08 ± 0.092
E9PL24 and related entries (UniProt Q5VU43) | 0.999 ± 0.021 | 0.962 ± 0.06
E7ETU7 and related entries (UniProt P09001) | 0.936 ± 0.1 | 0.999 ± 0.075
E7EMM4 and related entries (UniProt Q13510) | 0.956 ± 0.063 | 0.923 ± 0.073
G3V5N8 and related entries (UniProt Q9HBF4) | 1.02 ± 0.044 | 0.941 ± 0.081
F5H0R1 and related entries (UniProt Q9H6E5) | 0.994 ± 0.01 | 0.985 ± 0.013
E9PS74 and related entries (UniProt Q8NBI5) | 0.995 ± 0.019 | 1.04 ± 0.028
E9PBS1 and related entries (UniProt P22234) | 1.01 ± 0.082 | 1 ± 0.048
F8W689 and related entries (UniProt P48382) | 0.946 ± 0.035 | 0.954 ± 0.0086
E9PN89 and related entries (UniProt P11142) | 0.988 ± 0.036 | 1.02 ± 0.047
E2QRF9 and related entries (UniProt O75496) | 0.923 ± 0.052 | 0.94 ± 0.057
G3V3X7 and related entries (UniProt Q9Y587) | 1.05 ± 0.08 | 1.09 ± 0.12
E7ERK9 and related entries (UniProt Q9UI10) | 1.005 ± 0.0094 | 0.988 ± 0.057
E7EMW7 and related entries (UniProt O95071) | 1.02 ± 0.068 | 1.09 ± 0.088
E7EUU4 and related entries (UniProt Q04637) | 1.02 ± 0.018 | 1.11 ± 0.049
F5GZS6 and related entries (UniProt P08195) | 0.949 ± 0.032 | 0.932 ± 0.011
F5GYQ1 and related entries (UniProt P61421) | 1.05 ± 0.11 | 1.03 ± 0.053
E9PKC0 and related entries (UniProt Q6IQ23) | 1.05 ± 0.059 | 1.19 ± 0.083
G3V1P3 and related entries (UniProt Q969J3+G3V1P3) | 0.984 ± 0.034 | 0.971 ± 0.074
F8WCF6 and related entries (UniProt P59998) | 0.968 ± 0.081 | 0.963 ± 0.048

Target | NP40-soluble protein abundance (concentration: 0.1mM) | NP40-soluble protein abundance (concentration: 0.5mM)
F6Y5H0 and related entries (UniProt P29558) | 0.977 ± 0.024 | 0.981 ± 0.024
E9PFI7 and related entries (UniProt Q8N3A8) | 1.03 ± 0.11 | 1.1 ± 0.18
F8W8D3 and related entries (UniProt Q14493) | 1.01 ± 0.021 | 1.03 ± 0.056
E5RK69 and related entries (UniProt P08133) | 0.985 ± 0.031 | 0.99 ± 0.034
E7EW59 and related entries (UniProt Q9Y467) | 1.02 ± 0.035 | 1.05 ± 0.12
F2Z2X4 and related entries (UniProt Q9C0E2) | 1.06 ± 0.074 | 1.01 ± 0.05
F8VX04 and related entries (UniProt Q9H2H9) | 0.912 ± 0.054 | 0.979 ± 0.045
F8W8C2 and related entries (UniProt Q9HBM0) | 0.988 ± 0.033 | 0.997 ± 0.041
E7EM64 and related entries (UniProt Q7L5N1) | 1.07 ± 0.079 | 1.07 ± 0.085
F1T0I1 and related entries (UniProt O15027) | 0.995 ± 0.031 | 1.1 ± 0.074
E9PKF6 and related entries (UniProt Q5H9R7) | 1.01 ± 0.06 | 1.01 ± 0.054
G3V1C3 and related entries (UniProt Q9BZZ5) | 0.964 ± 0.014 | 0.9323 ± 0.0065
E9PS17 and related entries (UniProt Q96KG9) | 1.01 ± 0.03 | 0.991 ± 0.071
UniProt F5H5P2 | 0.99 ± 0.027 | 1 ± 0.016
E7ET49 and related entries (UniProt Q8NCG7) | 1.04 ± 0.055 | 0.977 ± 0.081
F8W1T6 and related entries (UniProt Q15434) | 0.893 ± 0.14 | 0.896 ± 0.022
E9PJM3 and related entries (UniProt Q9UK99) | 1.03 ± 0.072 | 0.989 ± 0.035
E9PC69 and related entries (UniProt Q7KZI7) | 1.1 ± 0.061 | 1.29 ± 0.15
F5H2B9 and related entries (UniProt Q9BZF9) | 1 ± 0.035 | 1 ± 0.051
E5RIH5 and related entries (UniProt Q6NXR4) | 0.958 ± 0.024 | 0.96 ± 0.045
E9PKB1 and related entries (UniProt Q0P6D6) | 0.967 ± 0.14 | 1.04 ± 0.17
E7ESA6 and related entries (UniProt Q05397) | 1.34 ± 0.28 | 1.09 ± 0.18
